Measurements published in US6436310B1, “Deicing solution” (Sears Petroleum & Transport Corporation, priority 1998, dated 2002).

Test: Corrosion rate, SHRP H205.7 Test Method for Evaluation of Corrosive Effects of Deicing Chemicals

| SMILES | Corrosion Rate, One Week (4.1% carbohydrate) [mils per year] | Corrosion Rate, Six weeks (4.1% carbohydrate) [mils per year] | Corrosion Rate, Three weeks (4.1% carbohydrate) [mils per year] | Corrosion Rate, One Week (carbohydrate Nil) [mils per year] | Corrosion Rate, Six weeks (carbohydrate Nil) [mils per year] | Corrosion Rate, Three weeks (carbohydrate Nil) [mils per year] |
| --- | --- | --- | --- | --- | --- | --- |
| [Cl-].[Cl-].[Mg+2] [Mg Cl2, magnesium chloride] | 0.89 | 0.40 | 0.61 | 2.58 | 1.73 | 1.93 |
| [Cl-].[Na+] [Sodium Chloride, sodium chloride] | – | – | – | 5.97 | 5.48 | 4.66 |
